These are yes or no findings as the source states them, for the method shown. In cells and extracts the contact can be indirect. Some results given as binding are weak or reduced against the parent protein; the word gives no strength.
Target: T1, Non-POU domain-containing octamer-binding protein (NONO), endogenous (human (endogenous in HCT116, MCF7, A549)) (UniProt Q15233)
T1 sequence: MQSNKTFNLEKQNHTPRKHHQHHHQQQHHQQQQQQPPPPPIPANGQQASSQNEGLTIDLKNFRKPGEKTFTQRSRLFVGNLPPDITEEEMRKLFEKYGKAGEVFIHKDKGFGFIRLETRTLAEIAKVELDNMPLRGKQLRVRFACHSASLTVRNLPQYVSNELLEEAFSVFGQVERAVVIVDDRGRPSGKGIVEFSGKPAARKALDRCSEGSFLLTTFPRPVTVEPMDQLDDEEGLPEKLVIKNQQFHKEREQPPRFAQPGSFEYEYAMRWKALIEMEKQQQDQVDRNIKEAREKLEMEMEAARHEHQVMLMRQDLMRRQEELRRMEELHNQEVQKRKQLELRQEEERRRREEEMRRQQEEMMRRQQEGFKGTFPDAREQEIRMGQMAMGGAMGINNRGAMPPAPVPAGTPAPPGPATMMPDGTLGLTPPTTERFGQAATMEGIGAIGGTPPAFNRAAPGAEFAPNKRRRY
Test: co-IP; anti-NONO antibody (normal rabbit IgG as control) and protein A/G agarose, overnight at 4 °C, HCT116 whole cell lysates in Pierce IP lysis buffer; washes with 150 mM NaCl, 20 mM HEPES pH 7.4, 0.1% NP-40; for SFPQ and PSPC1 the cells were untreated or treated with OSMI4 (24 h) or siOGT (48 h)

B1: O-GlcNAc transferase (OGT) (enzyme, UniProt O15294 1-1046)
chain: MASSVGNVADSTEPTKRMLSFQGLAELAHREYQAGDFEAAERHCMQLWRQEPDNTGVLLLLSSIHFQCRRLDRSAHFSTLAIKQNPLLAEAYSNLGNVYKERGQLQEAIEHYRHALRLKPDFIDGYINLAAALVAAGDMEGAVQAYVSALQYNPDLYCVRSDLGNLLKALGRLEEAKACYLKAIETQPNFAVAWSNLGCVFNAQGEIWLAIHHFEKAVTLDPNFLDAYINLGNVLKEARIFDRAVAAYLRALSLSPNHAVVHGNLACVYYEQGLIDLAIDTYRRAIELQPHFPDAYCNLANALKEKGSVAEAEDCYNTALRLCPTHADSLNNLANIKREQGNIEEAVRLYRKALEVFPEFAAAHSNLASVLQQQGKLQEALMHYKEAIRISPTFADAYSNMGNTLKEMQDVQGALQCYTRAIQINPAFADAHSNLASIHKDSGNIPEAIASYRTALKLKPDFPDAYCNLAHCLQIVCDWTDYDERMKKLVSIVADQLEKNRLPSVHPHHSMLYPLSHGFRKAIAERHGNLCLDKINVLHKPPYEHPKDLKLSDGRLRVGYVSSDFGNHPTSHLMQSIPGMHNPDKFEVFCYALSPDDGTNFRVKVMAEANHFIDLSQIPCNGKAADRIHQDGIHILVNMNGYTKGARNELFALRPAPIQAMWLGYPGTSGALFMDYIITDQETSPAEVAEQYSEKLAYMPHTFFIGDHANMFPHLKKKAVIDFKSNGHIYDNRIVLNGIDLKAFLDSLPDVKIVKMKCPDGGDNADSSNTALNMPVIPMNTIAEAVIEMINRGQIQITINGFSISNGLATTQINNKAATGEEVPRTIIVTTRSQYGLPEDAIVYCNFNQLYKIDPSTLQMWANILKRVPNSVLWLLRFPAVGEPNIQQYAQNMGLPQNRIIFSPVAPKEEHVRRGQLADVCLDTPLCNGHTTGMDVLWAGTPMVTMPGETLASRVAASQLTCLGCLELIAKNRQEYEDIAVKLGTDLEYLKKVRGKVWKQRISSPLFNTKQYTMELERLYLQMWEHYAAGNKPDHMIKPVEVTESA
binding: binds
